This passage reports AC50 results from PubChem BioAssay AID445 (National Center for Advancing Translational Sciences (NCATS), 2006).

The list shows a part of the results. These are further read-outs of the screen, such as a control signal, another cell line or another target. No call is given for them. The list favours compounds with an active or inconclusive main result. The note in brackets gives the kind of curve behind each potency; many fits are weak.

The nature of this test: IkB Signaling. Conditions: ABC-DLBCL IkBa-CBG/CBR dual luciferase ratio (green luciferase fused to IkBa over red control in OCI-Ly3 lymphoma cells), 4 h. In outline: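 Luminescence ratio of IκBα-fused green versus native red beetle luciferase in OCI-Ly3 cells, 4 h post-doxycycline with compound; red signal alone, scaled from basal (0%) to zero light (-100%), flagged nonspecific or cytotoxic effects.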
Where [1] appears, read: measured here: control luc red channel unless noted.

Take `Cc1ccc(NC(=O)C2CCN(S(=O)(=O)c3ccc4[nH]c(=O)ccc4c3)CC2)cc1C`: the AC50 under setting [1] was 31.6 µM [falling, single point].
As for `CCOc1ccc(CCNC(=O)Cn2c(-c3cccs3)cc3cc(F)ccc32)cc1OCC`, the AC50 under setting [1] is 10 µM [falling, partial curve].
On to `CCCc1cc(N2CCN(c3ccccc3)CC2)n2cnnc2n1`, for which the half-maximal activity concentration (AC50) under setting [1] was 31.6 µM [falling, single point].
With `CCc1ccc(CN(Cc2ccco2)c2cnc(S(C)(=O)=O)nc2C(=O)Nc2c(C)cccc2C)cc1`, the AC50 under setting [1] is 12.6 µM [falling, single point].
Same read-out and setting: next, `CCc1ccccc1NCc1nnc2n1CCCCC2`: 0.00631 µM [falling, full curve].
Turning to `Cc1cc(C)nc(N(C#N)CC(=O)c2ccccc2)n1`, the concentration at half-maximal activity (AC50) under setting [1] is 25.1 µM [falling, single point].
Consider `Clc1ccc(CCNc2nc3ccccc3c3nc(-c4ccccc4)nn23)cc1`, for which the AC50 under setting [1] was 20 µM [falling, partial curve].
As for `Cc1ccc(C(=O)N(Cc2ccco2)Cc2ccco2)cc1`, under setting [1], the AC50 is 39.8 µM [falling, single point].
`CCOc1ccc(NC(=O)Cn2cc(C(=O)c3cccs3)c3ccccc32)cc1`: the AC50 under setting [1] is 7.94 µM [falling, partial curve].
Take `COc1cccc(CCNC(=O)c2cnc3sc(N4CCCCCC4)nn3c2=O)c1`: the half-maximal activity concentration (AC50) under setting [1] is 25.1 µM [falling, single point].
Regarding `Clc1ccc(OCCCc2nc(-c3cccnc3)no2)c(Cl)c1`, the AC50 under setting [1] is 39.8 µM [falling, single point].
For `COc1ccc(S(=O)(=O)c2c(Nc3c(C)cccc3C)sc(C(=O)c3ccc4c(c3)OCO4)c2N)cc1`, the AC50 was 3.98 µM [rising, single point] (measured here: IkB-luc green channel) and 2.51 µM [rising, full curve] (measured here: control luc red channel).
`Cc1cccc(Nc2nc(N)nc(CN3CCN(c4ccc(F)cc4)CC3)n2)c1`: the AC50 under setting [1] is 10 µM [falling, partial curve].
As for `O=C(CSc1nnc(CNc2ccc(F)cc2)n1Cc1ccco1)N1CCCC1`, under setting [1], the AC50 was 39.8 µM [falling, partial curve].
On to `CS(=O)(=O)c1ncc(Cl)c(C(=O)Nc2c(C(=O)Nc3ccccc3)oc3ccccc23)n1`, for which the half-maximal activity concentration (AC50) under setting [1] was 5.01 µM [falling, full curve].
`Cc1cccc(Nc2ncc(NC(=O)c3cccc(F)c3)c(Nc3cccc(C)c3)n2)c1`: the AC50 under setting [1] is 20 µM [falling, partial curve, poor fit].
`NS(=O)(=O)c1ccc(CCNC(=O)c2ccc3nc(CCc4ccccc4)oc3c2)cc1`: under setting [1], the AC50 is 0.0631 µM [rising, full curve, poor fit].
`CCCc1nnc(NC(=O)C2CCCO2)s1` (stereo unspecified): the concentration at half-maximal activity (AC50) under setting [1] is 39.8 µM [falling, single point].
The same measure, in the same setting: next, `N#CC1=C(SCC(=O)c2cc3ccccc3oc2=O)NC(=O)C(C#N)C12CCCC2` (stereo unspecified): 3.98 µM [falling, full curve].
With `Cc1ccc(S(=O)(=O)c2cn(CC(=O)Nc3ccccc3C)c3cc4c(cc3c2=O)OCO4)cc1`, the AC50 under setting [1] was 39.8 µM [falling, single point].
Regarding `CC/C=C1/OC(=O)c2ccccc21`, under setting [1], the concentration at half-maximal activity (AC50) was 12.6 µM [rising, full curve, poor fit].
On to `Cc1ccc(Cl)cc1NC(=O)C1CCCN(S(=O)(=O)c2cccc3cccnc23)C1` (stereo unspecified), for which the concentration at half-maximal activity (AC50) under setting [1] was 31.6 µM [falling, single point].
`Cc1ccccc1NC(=O)c1c(NC(=O)c2ccco2)sc2c1CCC(C(C)(C)C)C2` (stereo unspecified): under setting [1], the AC50 is 12.6 µM [falling, partial curve, poor fit].
For the compound `COc1ccc(N2C(=O)CS(=O)(=O)C23C(=O)N(Cc2ccc(F)cc2)c2ccc(C)cc23)cc1` (stereo unspecified), the AC50 under setting [1] was 2.51 µM [falling, partial curve].
For the compound `COc1ccccc1CNC(=O)CSc1nc2nc(C)c(Cc3ccccc3Cl)c(C)n2n1`, under setting [1], the AC50 is 12.6 µM [falling, partial curve].
As for `COc1ccc(CCNC(=O)c2cccc(-n3cnc4cccnc43)c2C)cc1OC`, the AC50 under setting [1] was 39.8 µM [falling, single point].
For the compound `Cc1noc(C)c1S(=O)(=O)N1CCCC(C(=O)Nc2ccc(Cl)cn2)C1` (stereo unspecified), the concentration at half-maximal activity (AC50) under setting [1] is 15.8 µM [falling, partial curve].
Still for that read-out and setting: next, `COc1cc(C(Nc2ccccn2)c2ccc3ccc(C)nc3c2O)cc(OC)c1O` (stereo unspecified): 7.94 µM [falling, partial curve]; `CCOC(=O)c1c(S(=O)(=O)N2CCCC(C(=O)Nc3cccc(C#N)c3)C2)c(C)n(C)c1C` (stereo unspecified): 5.01 µM [rising, partial curve]; `COC(=O)c1ccccc1NC(=O)c1ccc(F)cc1`: 39.8 µM [falling, single point].
On to `Cc1ccccc1CNC(=O)c1cccc(NC(=O)N2CCSc3ncccc32)c1`, for which the AC50 under setting [1] is 25.1 µM [falling, partial curve].
Turning to `Cc1ccc(-n2nc(C)c3c2OC(N)=C(C#N)C3c2ccoc2)cc1` (stereo unspecified), under setting [1], the AC50 is 12.6 µM [falling, partial curve].
Regarding `Cc1cnc(NC(=O)CN2CCN(c3ccccn3)CC2)s1`, under setting [1], the half-maximal activity concentration (AC50) is 7.94 µM [falling, partial curve].
Take `COc1cccc(NS(=O)(=O)c2ccc3c(c2)[C@H]2C=CC[C@H]2[C@@H](c2ccccc2Cl)N3)c1`: under setting [1], the AC50 is 7.94 µM [falling, full curve].
Consider `Cc1cccn2c(Nc3ccccc3)c(-c3cccs3)nc12`, for which, under setting [1], the AC50 is 39.8 µM [falling, single point].
For the compound `Cc1[nH]c2ccccc2c1C(c1ccccc1)c1ccc(Cl)s1` (stereo unspecified), under setting [1], the AC50 is 20 µM [falling, partial curve].
Consider `COc1cccc(CNC(=O)Cc2ccc(NC(=O)N3CCSc4ncccc43)cc2)c1OC`, for which the AC50 under setting [1] was 0.0251 µM [falling, full curve, poor fit].
With `Cc1cccc(N2CCN(C(=O)CN3C(=O)COc4ccc(S(=O)(=O)N5CCC(C)CC5)cc43)CC2C)c1` (stereo unspecified), the concentration at half-maximal activity (AC50) under setting [1] is 12.6 µM [falling, partial curve].
For `CCOC(=O)N1CCN(Cc2nc3cc([N+](=O)[O-])ccc3n2C(C)C)CC1`, the concentration at half-maximal activity (AC50) under setting [1] was 39.8 µM [falling, single point].
Turning to `CC(C)c1cc(Nc2cccc(O)c2)cc(C(C)C)c1O`, under setting [1], the AC50 is 15.8 µM [falling, partial curve].
